Data published in PubChem BioAssay AID504467 (National Center for Advancing Translational Sciences (NCATS), 2011).
Out of some 330,000 compounds screened, about 7,700 (2.3%) were called active. The inconclusive results got no clear call from the source; some entries with a clear call stand among them for comparison. The call rests on the fitted dose curve; in most records, active means well fitted inhibition curve with a large enough effect; inconclusive means small, poorly fitted or top-dose-only effect, or effect the other way; inactive means flat fitted curve, though single readings scatter. Potencies of inconclusive entries are doubtful fits and often do not repeat.

Assay: qHTS screen for small molecules that inhibit ELG1-dependent DNA repair in human embryonic kidney (HEK293T) cells expressing luciferase-tagged ELG1; further: nearly all actives have a fitted effect of over 55% in size
Conditions: HEK293T ELG1-luciferase reporter, luminescence, 16 h, DNA damage induced by 5-fluorouridine; series mostly up to 46.1 µM
Summary of the method: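 DMSO vehicle served as the neutral condition. Each well held 2,000 cells given 5-fluorouridine plus compound; after 16 hr at 37 °C/5% CO2, ONE-Glo was added and luciferase measured 30 min later.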
Potency means the concentration at half of the fitted maximal effect.

Structure (SMILES)	Potency
Cc1ccc(Cn2ccc(NC(=O)c3cc(C4CC4)on3)n2)cc1	inactive
O=C(c1ccc2c(=O)n3c(nc2c1)CCCCC3)N1CCN(c2cccc(Cl)c2)CC1	inconclusive: 29.1 µM [inhibitor, single point]
Fc1cccc2sc(Nc3nc4cc5c(cc4s3)OCCO5)nc12	inconclusive: 1.64 µM [activator, full curve]
Cc1ccc(C)n1-c1nnc(N2CCC(C(=O)NCCCN3CC(C)CC(C)C3)CC2)s1 (centres undefined)	inconclusive: 20.6 µM [activator, partial curve]
O=c1[nH]c2cc3c(cc2cc1CN(Cc1cccnc1)C(=S)NCc1ccco1)OCO3	active: 11.6 µM
C=CCNC(=S)NC(=O)c1ccc(C)c(Br)c1	inconclusive: 29.1 µM [activator, single point]
C(=Nc1cccc2c(N=Cc3ccco3)cccc12)c1ccco1	inactive
Cc1ccc(NC(=O)CSc2ccc(-c3ccccn3)nn2)cc1	inconclusive: 16.4 µM [inhibitor, single point]
CCc1ccc(/C=N/NC(=O)c2ccccn2)cc1	inconclusive: 0.92 µM [activator, partial curve]
CCn1cc(/C=C(\NC(=O)c2ccc(OC)c(OC)c2)C(=O)N2CCN(C)CC2)c2ccccc21	inactive
O=C(COC(=O)Cc1ccccc1F)Nc1ccccc1[N+](=O)[O-]	inconclusive: 1.16 µM [activator, full curve, poor fit]
CC(O)c1nc2ccccc2n1CCCCOc1ccccc1 (centres undefined)	inactive
O=C(NC1CCN(Cc2ccccc2)CC1)c1ccc(N2CC3CC(C2)c2cccc(=O)n2C3)c([N+](=O)[O-])c1 (centres undefined)	inconclusive: 18.3 µM [activator, partial curve, poor fit]
Cc1ccc(C(=O)Nc2ccc3c(c2)OCCO3)cc1	inconclusive: 0.355 µM [activator, partial curve, poor fit]
CCc1ccccc1N(C(=O)c1snc(C(N)=O)c1N)C(C(=O)NCC1CCCO1)c1ccc(OC)c(OC)c1 (centres undefined)	inconclusive: 10.3 µM [inhibitor, partial curve, poor fit]
COc1cc(Cl)c(C)cc1NC(=O)CSc1ccc(NC(C)=O)cc1	inconclusive: 20.6 µM [inhibitor, partial curve, poor fit]
O=C(CSc1nnc(-c2ccc(F)cc2)n1CC1CCCO1)NCc1ccco1 (centres undefined)	inconclusive: 0.651 µM [inhibitor, partial curve, poor fit]
CC(NC(=O)CCCCCCN1C(=O)c2ccccc2C1=O)c1ccc2c(c1)CCCC2 (centres undefined)	active: 23.1 µM
CCCNS(=O)(=O)c1ccc(CCC(=O)N2CCN(c3ccc(F)cc3)CC2)cc1	inconclusive: 18.4 µM [inhibitor, partial curve, poor fit]
CCCS(=O)(=O)NCc1ccc2c(c1)cc(C)n2C	inconclusive: 14.6 µM [activator, partial curve, poor fit]
NC(=S)N/N=C/c1ncc(C(F)(F)F)cc1Cl	inconclusive: 4.11 µM [activator, partial curve, poor fit]
COc1ccc(-c2cc(C(=O)NNC(=O)c3csc(N4CCOCC4)n3)c3ccccc3n2)cc1	inconclusive: 4.11 µM [inhibitor, single point]

Structure (SMILES)	Potency
CN(C)/C=N/NC(=O)c1ccc(Cl)cc1	inactive
CCc1ccc(C(C)NC(=O)c2cc(C)oc2C)cc1 (centres undefined)	inactive
Cc1cccc(C(=O)OCC(=O)c2ccc3c(c2)NC(=O)CO3)c1	inconclusive: 5.8 µM [inhibitor, partial curve, poor fit]
Cc1ccc(N(C(=O)c2csnn2)C(C(=O)NC2CCCCC2)c2cccnc2)cc1C (centres undefined)	inactive
Cc1cc(C(=O)Oc2ccccc2C(=O)O)c(C)o1	inactive
COc1ccc(N=C2SC(CC(=O)Nc3ccccc3OC)C(=O)N2Cc2ccco2)cc1 (centres undefined)	inconclusive: 16.4 µM [inhibitor, partial curve, poor fit]
CC(C)c1nc(C(=O)N2CCc3c([nH]c4ccccc34)C2c2ccccn2)cs1 (centres undefined)	inconclusive: 29.1 µM [inhibitor, single point]
Cc1cc2oc(=O)cc(CSc3nnc(-c4cccs4)o3)c2cc1C(C)C	inconclusive: 32.6 µM [inhibitor, single point]
CC12CCC(=O)N1C(C(=O)Nc1cc(S(=O)(=O)N3CCCCCC3)ccc1OCC(F)(F)F)CS2 (centres undefined)	inconclusive: 10.3 µM [inhibitor, partial curve]
CCc1cc(C(=O)Cc2ccc(F)cc2)c(O)cc1O	inconclusive: 25.9 µM [inhibitor, partial curve]
CN1C(=O)/C(=C2\SC(=S)N(CCCCCC(=O)O)C2=O)c2ccccc21	inactive
Cc1ccnc2nc(C(=O)Nc3nccs3)nn12	inconclusive: 20.6 µM [activator, partial curve]
COc1cccc(-c2nc(CS(=O)(=O)CC(=O)Nc3ccc(C(C)=O)cc3)c(C)o2)c1	inconclusive: 20.6 µM [inhibitor, single point]
CC1=NN(C(N)=S)C(=O)C1N=Nc1ccc(Br)cc1 (centres undefined)	inconclusive: 20.6 µM [activator, partial curve]
CCS(=O)(=O)N1Cc2ccccc2CC1C(=O)Nc1nccs1 (centres undefined)	inconclusive: 18.4 µM [activator, partial curve]
CNC(=S)N(Cc1ccc(Cl)cc1)Cc1cccs1	inactive
Cc1nnc(N=c2ssnc2Cl)o1	inconclusive: 0.411 µM [inhibitor, full curve]
O=C(CN1CCC(Cc2ccccc2)CC1)NCCc1ccc(F)cc1	inactive
Cc1onc(-c2c(F)cccc2Cl)c1C(=O)NC1CC1	inactive
COCCNC(=O)c1cc2oc3ccccc3c2n1C	inconclusive: 16.4 µM [activator, partial curve]
COc1cc(OC)cc(-c2c(C#Cc3ccsc3)c3cc(-c4ccc(OC)c(OC)c4)ccc3n2C)c1	inactive
CC(NC(=O)c1ccccc1SCC(=O)N1CCCC1)c1ccccc1 (centres undefined)	inconclusive: 25.9 µM [activator, single point]

Rewritten with each value named: part of the list above.
Fc1cccc2sc(Nc3nc4cc5c(cc4s3)OCCO5)nc12
  Potency: inconclusive: 1.64 µM [activator, full curve]
CCc1ccc(C(C)NC(=O)c2cc(C)oc2C)cc1 (centres undefined)
  Potency: inactive
